Results reported in patent US20060110456A1, “Method for biocidal and/or biostatic treatment and compositions therefor” (NATIONAL UNIVERSITY OF SINGAPORE, priority 2004, published 2006).
Where a name gives a salt, the structure may show the parent alone. Some entries repeat one wording, which the source may state once for all of them.

What was measured:
[1] = Effect of pharmaceuticals on substratum wettability (Standard Harmonic Mean, SHM); conditions: 25 and 50 μg ml^−1 in seawater, 2 h
[2] = tested on: Balanus amphitrite cyprids; conditions: LC50/EC50
Procedure: Pharmaceuticals from the respective manufacturers were treated in the following way. A pill containing a known amount of active ingredient (as stated in product information) was ground in a mortar and pestle and a suspension of 2 mg ml^−1 generated in de-ionized water. This stock solution is stored at −20° C. in 4 ml amber screw cap vials. For the bioassays, 250 ul of stock solution is added to 10 ml of 1 um filtered seawater. This suspension was then sonicated for 10 minutes. Serial dilutions of this 50 μg ml^−1 seawater solution, or suspension, with seawater was done to generate the required range of concentrations.
This method is now standard practice for many antifouling screening of novel compounds.
Barnacle larvae from field-collected adults were reared on an algal mixture of 1:2:2 v/v of Rhodomonas salina, Tetraselmis suecica and Chaetoceros muelleri at 25° C., at approximately 5×10^5 cells per ml density. On this regime, larvae metamorphose to cyprids in 5 days.
Test solutions were made up to twice the required final concentration. 1 ml of test solution was added into each well, and cyprids were transferred into each well in 1 ml of seawater. Assays were done in triplicate. After 24 hours, larvae that had attached and metamorphosed were enumerated and the result expressed as percentage settlement. Larvae not attached were scored as not settled. […]

| SMILES | Wettability (SHM) of untreated polystyrene [1] | Therapeutic ratio [2] |
| --- | --- | --- |
| CN1CCN(C(c2ccccc2)c2ccccc2)CC1 [CYZ, Cyclizine hydrochloride] | little effect | – |
| CCCCCCCCCC(=O)OC1(c2ccc(Cl)cc2)CCN(CCCC(=O)c2ccc(F)cc2)CC1 [HDL, haloperidol decanoate] | little effect | 2.12 |
| CNCCC(Oc1ccc(C(F)(F)F)cc1)c1ccccc1 (stereo not drawn) [PZC, fluoxetine hydrochloride] | slight increase in wettability | – |
| CN1CCN(CCCN2c3ccccc3Sc3ccc(C(F)(F)F)cc32)CC1 [TFZ, Trifluoperazine hydrochloride] | little effect | – |
| Cc1nccn1CC1CCc2c(c3ccccc3n2C)C1=O (stereo not drawn) [ZFN, ondansetron hydrochloride] | significantly increased the wettability | – |
| CN[C@H]1CC[C@@H](c2ccc(Cl)c(Cl)c2)c2ccccc21.Cl [ZLT, sertraline hydrochloride] | significantly increased the wettability | – |
| Cc1cc2c(s1)Nc1ccccc1N=C2N1CCN(C)CC1 [ZPX, olanzapine] | significantly increased the wettability | 218.97 |
